Measured data: PubChem BioAssay AID1259308 (NCATS, 2017)
In all, the deposit lists about 59,000 reagents; below is a random part of them. Over the whole deposit, about 1,510 (2.6%) were called active. 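Calls use total luciferase alone and ignore viability, so some active siRNAs may act by altering cell number.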 The numbers tell different reagents against one gene apart. Further read-outs or replicates are left out here. Reagent sequences are not shown.

Screen: 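Candidate targets for better recombinant protein yield in mammalian cells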 (primary screen)
System: human HEK293 embryonic kidney cells stably expressing firefly luciferase (HEK-CMV-Luc2-Hygro)
Reagents: single siRNA against human genes, 0.8 pmol siRNA per well
Timing: 72 h
Measured: 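Reporter luminescence and viable-cell signal on separate replicate plates, given as percent of non-targeting control and median/MAD z-scores, plus per-cell luciferase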
Scale: total luciferase, z-score and total luciferase, % of control: higher = more reporter protein produced
Hit rule: 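Active when the median/MAD z-score for overall luciferase is greater than 3; a gene was taken forward for validation with new siRNAs if at least two of its three siRNAs passed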
Calls: active = raised luciferase; inactive = no rise

SPOCK1 #1: total luciferase, z-score = -0.0504; total luciferase, % of control = 80.9; outcome = inactive
SPOCK1 #2: total luciferase, z-score = -0.127; total luciferase, % of control = 79.4; outcome = inactive
SPOCK1 #3: total luciferase, z-score = -0.896; total luciferase, % of control = 64.1; outcome = inactive
SH2B1 #1: total luciferase, z-score = -0.42; total luciferase, % of control = 73.5; outcome = inactive
SH2B1 #2: total luciferase, z-score = -1.79; total luciferase, % of control = 46.3; outcome = inactive
SH2B1 #3: total luciferase, z-score = -0.832; total luciferase, % of control = 65.3; outcome = inactive
TNFSF18 #1: total luciferase, z-score = -0.294; total luciferase, % of control = 76; outcome = inactive
TNFSF18 #2: total luciferase, z-score = -0.865; total luciferase, % of control = 64.7; outcome = inactive
TNFSF18 #3: total luciferase, z-score = -1.02; total luciferase, % of control = 61.7; outcome = inactive
MYO1B #1: total luciferase, z-score = -0.111; total luciferase, % of control = 79.7; outcome = inactive
MYO1B #2: total luciferase, z-score = 0.257; total luciferase, % of control = 87; outcome = inactive
MYO1B #3: total luciferase, z-score = -0.393; total luciferase, % of control = 74.1; outcome = inactive
RARRES1 #1: total luciferase, z-score = 0.344; total luciferase, % of control = 88.7; outcome = inactive
RARRES1 #2: total luciferase, z-score = -0.301; total luciferase, % of control = 75.9; outcome = inactive
RARRES1 #3: total luciferase, z-score = -0.422; total luciferase, % of control = 73.5; outcome = inactive
CTAG2 #1: total luciferase, z-score = 1.18; total luciferase, % of control = 105; outcome = inactive
CTAG2 #2: total luciferase, z-score = 1.16; total luciferase, % of control = 105; outcome = inactive
CTAG2 #3: total luciferase, z-score = -0.138; total luciferase, % of control = 79.1; outcome = inactive
NOCT #1: total luciferase, z-score = 2.64; total luciferase, % of control = 134; outcome = inactive
NOCT #2: total luciferase, z-score = -1.5; total luciferase, % of control = 52; outcome = inactive
NOCT #3: total luciferase, z-score = 0.365; total luciferase, % of control = 89.1; outcome = inactive
MCTP1 #1: total luciferase, z-score = -0.277; total luciferase, % of control = 76.4; outcome = inactive
MCTP1 #2: total luciferase, z-score = -0.747; total luciferase, % of control = 67; outcome = inactive
MCTP1 #3: total luciferase, z-score = -0.328; total luciferase, % of control = 75.4; outcome = inactive
RFWD3 #1: total luciferase, z-score = -0.601; total luciferase, % of control = 69.9; outcome = inactive
RFWD3 #2: total luciferase, z-score = 1.91; total luciferase, % of control = 120; outcome = inactive
RFWD3 #3: total luciferase, z-score = 0.668; total luciferase, % of control = 95.2; outcome = inactive
NT5C1A #1: total luciferase, z-score = -2.27; total luciferase, % of control = 36.7; outcome = inactive
NT5C1A #2: total luciferase, z-score = 0.327; total luciferase, % of control = 88.4; outcome = inactive
NT5C1A #3: total luciferase, z-score = -0.637; total luciferase, % of control = 69.2; outcome = inactive
ATXN2L #1: total luciferase, z-score = 0.377; total luciferase, % of control = 89.4; outcome = inactive
ATXN2L #2: total luciferase, z-score = -0.909; total luciferase, % of control = 63.8; outcome = inactive
ATXN2L #3: total luciferase, z-score = 1.06; total luciferase, % of control = 103; outcome = inactive

5 consecutive reagents from above, quoted:
RARRES1 #2: total luciferase, z-score = -0.301; total luciferase, % of control = 75.9; outcome = inactive
RARRES1 #3: total luciferase, z-score = -0.422; total luciferase, % of control = 73.5; outcome = inactive
CTAG2 #1: total luciferase, z-score = 1.18; total luciferase, % of control = 105; outcome = inactive
CTAG2 #2: total luciferase, z-score = 1.16; total luciferase, % of control = 105; outcome = inactive
CTAG2 #3: total luciferase, z-score = -0.138; total luciferase, % of control = 79.1; outcome = inactive
